Some of these results come from one statement about several compounds together. Numbered stars: 1 amine (or outer) side, 2 acyl side, 3 side chain; on linkers, the order of the positions; unused ones are H or OH. Bridge positions count the residues as written; N and C are the ends. Square brackets hold non-standard residues; d marks the D form. Peptide text beside a SMILES is read from it. Adda = CO[C@@H](Cc1ccccc1)[C@@H](C)/C=C(C)/C=C/[C@H](N[*:1])[C@H](C)C(=O)[*:2]; dAsp(3S-Me) = C[C@H](C(=O)[*:3])[C@@H](N[*:1])C(=O)[*:2]; d(γGlu) = O=C(O)[C@@H](CCC(=O)[*:2])N[*:1]; NMeDha = C=C(NC)C(=O)O
Experiments:
[1] = system: OATP1B3-transfected HeLa cells; details: read-out: Growth Inhibition OATP1B3 IC50
[2] = system: pIRESneo2 (control plasmid) transfected HeLa cells; format: cell-based; details: read-out: Growth inhibition: toxicity not reached / no cytotoxicity up to stated concentration in control cells

| Structure (SMILES) | IC50 [1] | IC50 [2] |
| --- | --- | --- |
| C=C1C(=O)N[C@H](C)C(=O)N[C@@H](CC(C)C)C(=O)N[C@@H](C(=O)O)[C@H](C)C(=O)N[C@@H](Cc2ccccc2)C(=O)N[C@@H](/C=C/C(C)=C/[C@H](C)[C@H](Cc2ccccc2)OC)[C@H](C)C(=O)N[C@@H](C(=O)O)CCC(=O)N1C [Microcystin LF, microcystin LF] (F[Adda][d(γGlu)][NMeDha][dA]L[dAsp(3S-Me)]-OH; lactam N-7) | < 1 nM | > 1000 nM |
| C=C1C(=O)N[C@H](C)C(=O)N[C@@H](CC(C)C)C(=O)N[C@@H](C(=O)O)[C@H](C)C(=O)N[C@@H](Cc2c[nH]c3ccccc23)C(=O)N[C@@H](/C=C/C(C)=C/[C@H](C)[C@H](Cc2ccccc2)OC)[C@H](C)C(=O)N[C@@H](C(=O)O)CCC(=O)N1C [Microcystin LW, microcystin LW] (W[Adda][d(γGlu)][NMeDha][dA]L[dAsp(3S-Me)]-OH; lactam N-7) | < 1 nM | > 1000 nM |

— patent publication US9006173B2, “Microcystins as agents for treatment of cancer” (priority 2006, dated 2015)
